# Measurements taken from PubChem BioAssay AID588497 (NMMLSC, 2011).
# About 780 (0.22%) of roughly 360,000 compounds were called active. Inconclusive results, whose numbers are uncertain, are shown with a selection of clear calls. Rule as the data show it: active = inhibition above about 35% (passing the limit was not always enough); inconclusive = no clear call, values can overlap the other calls.
# Test system: Botulinum neurotoxin type F light chain protease (Clostridium botulinum)
# Experiment: BoNT/F light chain protease inhibitors, primary screen, biochemical, flow cytometry, MLPCN library (AID 588497); also: plate controls were buffer without enzyme for full effect and enzyme alone for no effect
# Details: Multiplex microsphere protease cleavage assay, at 10 µM, active compounds read high
row,SMILES,inhibition
1,COc1ccccc1C(=O)Nc1ccc2[nH]ncc2c1,inconclusive: -1.4%
2,O=S(=O)(O)c1ccc(SCc2ccccc2)nc1,inconclusive: -27.1%
3,O=C(O)c1ccccc1-c1ccc(/C=C2\SC(=O)N(c3ccccc3)C2=O)o1,inconclusive: 13.1%
4,CN(C)c1ccc(-c2sc(Nc3ccccc3)n[n+]2-c2ccc(F)cc2)cc1,inactive: 9.5%
5,CCOC(=O)C1Nc2ccc(Br)cc2C2C=CCC12 (configuration not stated),inconclusive: -75.9%
6,Cc1cccc(CSc2nnc(-c3cnccn3)n2C)c1,inconclusive: 33.4%
7,CC(C)(C)NC(=O)C1c2ccccc2Oc2ccccc21,inconclusive: -31.1%
8,O=C(c1cccs1)n1nc(-c2ccc(Cl)cc2)nc1NCc1ccco1,inactive: -10.4%
9,COc1ccccc1N1CCN(S(=O)(=O)c2ccccc2)CC1,inactive: 2.5%
10,Nc1c2c(nc3ccccc13)CCCC2=O,inconclusive: -74.6%
11,Cc1cc(S(=O)(=O)Nc2c(C(=O)O)[nH]c3ccccc23)ccc1F,inactive: 0.4%
12,Nc1ccccc1-c1nnc(SCC(=O)Nc2ccccc2OC(F)F)[nH]c1=O,inactive: -2.4%
13,O=C(c1cccs1)N1CCCC(c2ccccc2)C1 (configuration not stated),inconclusive: 26.8%
14,CCN(CC)c1ccc(S(=O)(=O)N2CCOCC2)cc1NC(=O)COC(=O)c1ccco1,inconclusive: -0.6%
15,COC(=O)[C@H](CC(C)C)NC(=O)NCCC1=CCCCC1,inactive: 7.2%
16,CN(C)S(=O)(=O)c1cccc(NC(=S)N/N=C/C2CC=CCC2)c1 (configuration not stated),inactive: -4.1%
17,O=C(NCc1nc2ccccc2[nH]1)c1ccccc1F,inconclusive: 10%
18,Cc1cccc(C(=O)NN2S(=O)(=O)c3ccccc3S2(=O)=O)c1,inactive: 0.1%
19,COCCNC(=O)CCC1CCN(Cc2ccc(-c3ccccc3)cc2)CC1,inconclusive: -37.8%
20,CCOC(=O)C1CCN(C(C(=O)NC2CCCCC2)c2ccc(OC)cc2)CC1 (configuration not stated),inconclusive: 17.8%
21,Cn1c(=O)c2c(nc(SCCN3CCOCC3)n2Cc2ccc(Cl)cc2)n(C)c1=O,inactive: -0.1%
22,Fc1ccc2c(c1)C1OCCCC1C(c1ccccc1)N2 (configuration not stated),inconclusive: 13.7%
23,CC1CCCN(S(=O)(=O)c2ccc(NC(=O)CN3CCCCC3)cc2)C1 (configuration not stated),inconclusive: -8.3%

row,SMILES,inhibition
1,Cc1ccc(S(=O)(=O)Oc2cc(N)c3c(n2)CCC3)cc1,inconclusive: 25.9%
2,CN(C(=O)Cc1ccc2c(c1)OCO2)C1CCCN(Cc2ccccc2F)C1 (configuration not stated),inconclusive: 14.9%
3,Cc1ccccc1-n1c2nc(=O)n(C)c(=O)c-2cc2ccccc21,inconclusive: 1.1%
4,CN(N=Cc1ccc([N+](=O)[O-])cc1)c1ccccn1,inactive: -2%
5,COc1ccc(C(=O)CN2CCN(c3ccc(F)cc3)CC2)cc1,inconclusive: -19.8%
6,Cc1ccc(C(=O)Nc2ccccc2C(=O)NCc2cccnc2)cc1,inactive: 8.1%
7,Cc1ccccc1NC(=O)c1cc2c(=O)n3cccc(C)c3nc2s1,inactive: -8.5%
8,CC(C)c1ccc(CNC(=O)C2(C)CCCN2C)cc1 (configuration not stated),inactive: -1.5%
9,CCOC(=O)c1[nH]c2ccc(F)cc2c1NC(=O)CCN1CCOCC1,inactive: 1.1%
10,COC(=O)c1cc(NC(=O)c2ccco2)ccc1N1CCOCC1,inconclusive: -10.2%
11,C[C@@H]1CN([C@H](C)CO)C(=O)CCCn2nncc2CO[C@H]1CN(C)S(C)(=O)=O,inactive: -5.6%
12,CCc1ccc(CN2CCN(S(=O)(=O)Cc3ccccc3)CC2)cc1,inactive: -7.2%
13,Cc1cccc(Cl)c1NNC(=O)Nc1c([N+](=O)[O-])c(C)nn1C,inconclusive: -6.2%
14,COc1cc(OC)cc(C(=O)NNC(=O)c2cc(=O)[nH]c3ccccc23)c1,inactive: -11.6%
15,CCCn1c(=O)[nH]c2ccccc21,inactive: -5.5%
16,O=S(=O)(CCN1CCSCC1)c1ccc(Cl)cc1,inconclusive: -2.3%
17,O=C(NNC(=O)c1ccccc1O)c1ccc(S(=O)(=O)Nc2ccccc2F)cc1,inconclusive: -4%
18,COC(=O)c1ccccc1NC(=O)c1cc2ccccc2o1,inconclusive: 11.8%
19,Cc1cc(C[n+]2ccccc2)c2nsnc2c1,inactive: 5.1%
20,Cc1ccc(-c2cc(C(F)F)n3ncc(C(=O)N4CCN(c5cccc(C)c5C)CC4)c3n2)cc1,inconclusive: -37.9%
21,O=C(c1ccc2c(=O)n(Cc3ccccc3Cl)c(=S)[nH]c2c1)N1CCCC1,inactive: -1.7%
22,Cc1ccc(C(=O)NNc2c3ccccc3nc3ccccc23)cc1,inconclusive: -57.1%
23,Cc1c(NC(=O)COC(=O)C2=COCCO2)cccc1[N+](=O)[O-],inconclusive: -0.5%

row,SMILES,inhibition
1,Cc1cc2ccccc2cc1CN1CCCCC1,inconclusive: -7%
2,O=C1NC(=O)N(c2ccccc2)C(=O)/C1=C\C=C\c1ccccc1,inconclusive: 14.3%
3,CC(C)(C)OC(=O)N1CCC(C(=O)Nc2ccc(C(=O)NCCc3ccccc3)cc2)CC1,inactive: 2.2%
4,O=C(NCCCN1CCOCC1)c1cc(Cl)ccc1Cl,inconclusive: 23.8%
5,COc1cc(C2Nc3cc(C)c(C)cc3NC3=C2C(=O)CC(C)(C)C3)ccc1OC(C)=O (configuration not stated),inconclusive: 1.3%
6,CN(CC(=O)NNC(=O)CCNS(=O)(=O)c1ccccc1)S(=O)(=O)c1ccc(Cl)cc1,inconclusive: 10.1%
7,COc1ccc(NS(=O)(=O)c2ccc(C)c(C(=O)N(C)CCc3ccc(OC)c(OC)c3)c2)cc1,inconclusive: -10.9%
8,COc1ccc(C2CC(c3ccccc3)=NN2c2ccc(C(N)=O)cc2)cc1 (configuration not stated),inconclusive: 15.7%
9,C=CCNc1nc(Cl)nc(NC2CCCCC2)n1,inconclusive: -16%
10,CC(C#N)(NC(=O)COC(=O)c1ccccc1NCCO)C1CC1 (configuration not stated),inactive: -3.8%
11,C=C1CCc2c([nH]c3ccc(OCC(C)C)cc23)C1=O,inconclusive: 9.9%
12,CC(Sc1n[nH]c(-c2ccccc2)n1)C(=O)c1c(N)n(C)c(=O)n(C)c1=O (configuration not stated),inactive: 11.5%
13,Cc1cccc(NC(=O)c2ccc(NS(=O)(=O)c3c(C)noc3C)cc2)c1,inconclusive: -20.7%
14,CC1(C)Cc2c(sc3nc4n(-c5ccccc5)cnn4c(=O)c23)CO1,inconclusive: -50.1%
15,COc1ccccc1NC(=O)COc1cccc2c1CCNC2=O,inactive: -1.8%
16,COc1ccccc1CC(=O)N1CCN(c2cccc(Cl)c2)CC1,inconclusive: -44%
17,O=C(CN1CCN(Cc2ccccc2)CC1)N/N=C/c1cccs1,inconclusive: 45.1%
18,Cc1cc2cc(CNC(=O)COc3ccccc3)ccc2n1C,inactive: -71.8%
19,Cc1nc(C)c(Oc2cccc(C(F)(F)F)c2)c(=O)[nH]1,inconclusive: 17.3%
20,CN(C(=O)CC1C(=O)NCCN1Cc1ccc(F)c(F)c1)C1CCCCC1 (configuration not stated),inconclusive: -13%
21,CC(=Nc1ccc(F)cc1)c1c(O)n(C)c(=O)[nH]c1=O,inconclusive: -38.7%
22,O=C(Cc1ccccc1)c1ccc(Cl)cc1,inconclusive: -43%
23,Nc1ccc(Oc2ccc(F)cc2)nc1,inconclusive: 27%

# Some of these compounds in order of count of non-hydrogen atoms, rising:
row,SMILES,inhibition
21,CC(=Nc1ccc(F)cc1)c1c(O)n(C)c(=O)[nH]c1=O,inconclusive: -38.7%
11,C[C@@H]1CN([C@H](C)CO)C(=O)CCCn2nncc2CO[C@H]1CN(C)S(C)(=O)=O,inactive: -5.6%
14,CCN(CC)c1ccc(S(=O)(=O)N2CCOCC2)cc1NC(=O)COC(=O)c1ccco1,inconclusive: -0.6%

# Remaining list, next part

row,SMILES,inhibition
1,CCCCCN(C(=O)CCC(=O)OCc1cc(C)ccc1C)c1c(N)n(CCCC)c(=O)[nH]c1=O,inconclusive: -1.5%
2,Cc1cc(O)c(-c2cc(C(=O)NCc3ccc4c(c3)OCO4)[nH]n2)cc1C,inconclusive: -10.7%
3,Cc1ccc(-n2c(-c3cc(-c4ccco4)[nH]n3)n[nH]c2=S)c(Br)c1,inconclusive: -18.1%
4,N#C/C(=C(/O)Cc1ccccc1)P(=O)(c1ccccc1)c1ccccc1,inconclusive: 1.7%
5,COC(=O)C1CC(c2ccccc2)N(c2ccccc2)O1 (configuration not stated),inactive: 0.6%
6,N#C/C(=C(/O)c1cccs1)c1nc2ccccc2[nH]1,inactive: -0.3%
7,Cn1c(-c2ccc(C=O)s2)nc2c3ccccc3c3ccccc3c21,active: 39.7%
8,CC1=C[C@@H]2c3cccc4[nH]cc(c34)C[C@H]2N(C)C1,inactive: -138%
9,COc1cc2ccccc2cc1C(=O)N(CCN(C)C)c1nc2c(F)cc(F)cc2s1,inactive: -0.1%
10,COc1cc(C(=O)Oc2c(OC)cc(C(=S)N3CCOCC3)cc2OC)cc(OC)c1OC,inconclusive: -11%
11,COc1ccc(OC)c(N(CC(=O)N2CCCC2)S(C)(=O)=O)c1,inconclusive: 8.7%
12,O=C(/C=C/c1ccc([N+](=O)[O-])cc1)NCCN1C(=O)S/C(=C\c2ccc(F)cc2)C1=O,inactive: -4.8%
13,NC(=S)N1CCCc2ccccc21,inconclusive: -7.5%
14,CCOc1ccccc1N1CCN(Cc2cnc(-c3ccccc3)[nH]2)CC1,inconclusive: -67.1%
15,CSc1nc2cc(C)nn2c(-c2ccccc2Cl)c1C#N,inconclusive: -23.3%
16,O=C(O)C1C2C=CC(O2)C1C(=O)Nc1cccc(C(F)(F)F)c1 (configuration not stated),inconclusive: -28.6%
17,CC(=Cc1ccccc1)C=C1SC(=S)N(CCCC(=O)Nc2ccc(C(=O)O)c(O)c2)C1=O,inactive: -5.2%
18,O=C(c1ccccc1[N+](=O)[O-])N1CCCC(C(=O)N2CCCCCC2)C1 (configuration not stated),inconclusive: -15.4%
19,CN(C)S(=O)(=O)N1CCc2ccc(NC(=O)c3ccc(C(F)(F)F)cc3)cc2C1,inconclusive: 34.7%
20,COC(=O)c1sc(N(C)C)c(C#N)c1-c1ccccc1,inconclusive: -35.4%
21,CCc1nn(CC(=O)Nc2cc(C)ccc2C)c(=N)s1,inactive: -1.1%
22,COc1ccc(CCN2CCCC(CN(C)Cc3cc(Cl)c(O)c(OC)c3)C2)cc1 (configuration not stated),inconclusive: 1.2%
23,CC(C)(C)OC(=O)N1CCC(CNC(=O)c2ccc(F)cc2)CC1,inconclusive: -27.2%
